# Measurements from PubChem BioAssay AID652054 (National Center for Advancing Translational Sciences (NCATS), 2013).
# Amino acid sequences for entries named in this document (tags omitted).
# UniProt P35462, whole entry, looked up: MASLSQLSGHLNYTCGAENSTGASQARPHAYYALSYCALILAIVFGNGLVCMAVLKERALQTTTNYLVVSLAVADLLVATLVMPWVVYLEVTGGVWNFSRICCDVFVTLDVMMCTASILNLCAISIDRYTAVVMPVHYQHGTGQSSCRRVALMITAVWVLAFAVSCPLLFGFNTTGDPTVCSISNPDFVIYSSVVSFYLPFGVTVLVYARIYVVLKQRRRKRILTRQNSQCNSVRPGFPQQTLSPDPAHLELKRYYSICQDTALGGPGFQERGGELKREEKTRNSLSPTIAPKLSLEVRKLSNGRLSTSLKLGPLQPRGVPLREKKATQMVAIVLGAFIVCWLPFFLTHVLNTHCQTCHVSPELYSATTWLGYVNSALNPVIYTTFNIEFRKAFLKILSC
# Screen size: about 360,000 compounds; about 9,100 (2.5%) were called active. This list was built around the results that the source calls inconclusive (neither active nor inactive); the mix of calls is not that of the screen. Rule as the data show it: active = max response below about -50%; inconclusive = no clear call, values can overlap the other calls; inactive = above that.
# Molecular target: D(3) dopamine receptor (Homo sapiens) (UniProt P35462)
# Experiment: qHTS of D3 Dopamine Receptor Antagonist: qHTS
# Settings: D3R cells, DiscoveRx beta-arrestin luminescence, antagonist mode; stronger effect = lower value
# Procedure, shortened: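 Cells expressing the human receptor were seeded at 1500 cells/well, incubated overnight at 37 degrees C in 5% CO2, then exposed to library compounds with dopamine controls for 90 minutes at 37 degrees C before luminescent detection.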
# % is scaled to controls: 0 for no effect and ±100 for the full control effect.
row,Structure (SMILES),"max response, negative = inhibition"
1,c1ccc(-n2cc(CN3CCCC(CN4CCCC4)C3)c(-c3ccc4c(c3)OCO4)n2)cc1 (stereo not drawn),inactive: -9.43%
2,O=C(Cc1ccccc1)N[C@@H]1c2ccccc2CC[C@@H]1OCc1ccccc1,active: -90.5%
3,O=C(NCCN1CCN(Cc2ccccc2)CC1)c1cc2c(=O)[nH]c3ccccc3c2s1,inconclusive: -37.9%
4,O=C(c1cc(COc2ccc3ncccc3c2)on1)N1CCCC1,inactive: 18%
5,CN1N=C(N)c2cn(C3OC(COP(=O)(O)O)C(O)C3O)c3ncnc1c23 (stereo not drawn),inactive: -4.42%
6,COc1ccc(NC(=O)N2c3ccccc3CC2C)cc1OC (stereo not drawn),inconclusive: -45.6%
7,CC1(C(=O)NCc2ccccc2Br)CCN1Cc1csc2ccccc12 (stereo not drawn),inconclusive: -46.1%
8,COc1ccc(C2/C(=C(\O)c3ccc(OC)c(Cl)c3)C(=O)C(=O)N2CCN(C)C)cc1 (stereo not drawn),inconclusive: -31.4%
9,Cc1ccc(C(=O)NCC(=O)OCC(=O)NC(C)c2ccccc2)s1 (stereo not drawn),inconclusive: -32.3%
10,CCOc1cc(/C=N/NC(=O)c2ccncc2)ccc1OS(C)(=O)=O,inconclusive: -40.5%
11,CC1CC(C)CN(S(=O)(=O)c2ccc(C(=O)N(C)Cc3ccccc3)cc2)C1 (stereo not drawn),inactive: 26%
12,O=C(NC1CCN(Cc2ccccc2)C1)c1cccc(S(=O)(=O)N2CCOCC2)c1 (stereo not drawn),inconclusive: -45.6%
13,Clc1ccc(OCCOCCNCc2ccccc2)cc1Cl,inconclusive: -31.7%
14,CCN(CC)S(=O)(=O)c1cccc(C(=O)NCC2CCCCC2)c1,inconclusive: -49.8%
15,O=C(CNC(=O)c1cccc(F)c1)N/N=C/c1cccnc1,inconclusive: -44.1%
16,O=S(=O)(c1ccc(=S)[nH]c1)N1CCCC1,inconclusive: -33.8%
17,O=C(c1ccco1)N1CCCC(N2CCN(c3cccc(C(F)(F)F)c3)CC2)C1 (stereo not drawn),active: -65.5%
18,CCc1ccc(NC(=O)CCn2c(=O)c3cccn3c3ccccc32)cc1,active: -54.2%
19,CN1CCN(/N=C/c2ccc(N(c3ccccc3)c3ccccc3)cc2)CC1,inconclusive: -33.5%
20,CCOC(=O)Cn1c(=S)[nH]c2c(oc3ccc(Cl)cc32)c1=O,active: -68%
21,CCc1nc2ccc(C(=O)N(C)CCCN(C)C)cn2c1N(C)Cc1cc2ccccc2s1,inactive: 6.84%
22,O=C(CCN1CCOCC1)c1ccc(N2CCCCC2)cc1,active: -76.3%

row,Structure (SMILES),"max response, negative = inhibition"
1,N#CC(C#N)=NNc1ccc([N+](=O)[O-])cc1,inconclusive: -31.6%
2,CCN(CC)CCCNC(=O)c1ccc2c3n(nc2c1)-c1ccc(Cl)cc1CO3,active: -116%
3,COc1ccc(CN2CCN(c3cccc(C)c3C)CC2)cc1OC,inactive: 20.9%
4,COc1ccccc1N1CCN(CC(O)COc2ccc(S(=O)(=O)N3CCOCC3)cc2)CC1 (stereo not drawn),active: -80.8%
5,Cc1cc(N2CCN(c3nc4ccccc4s3)CC2)n2ncnc2n1,inactive: 52.9%
6,COc1ccc2c(c1)OC(O)(C(F)F)CC2=O (stereo not drawn),inconclusive: -30.4%
7,Cc1ccc(S(=O)(=O)Nc2cccc(C(=O)NCC(c3ccccc3)N(C)C)c2)cc1F (stereo not drawn),inconclusive: -46.6%
8,CCOc1ccc(N2C(=O)CC(SCCN)C2=O)cc1 (stereo not drawn),inconclusive: -35.7%
9,CCN(CC)P(=O)(Nc1ccc(C)cc1Br)c1ccc(N(C)C)cc1NC(=O)c1ccco1 (stereo not drawn),active: -59.8%
10,Cc1ccc(NC(=O)c2cccc(N3C(=O)C4C5C=CC(C5)C4C3=O)c2)cc1C (stereo not drawn),inactive: 4.6%
11,COc1ccc(Nc2nnc(-c3ccc(O)cc3)c3ccccc23)cc1,inconclusive: -34.1%
12,CCN(CC)Cc1cc2ccccc2c2c1COC2,inconclusive: -49.9%
13,CC(C)CC1(C)NC(=O)N(CC(=O)Nc2cccc(S(=O)(=O)N(C)c3ccccc3)c2)C1=O (stereo not drawn),inactive: -16.6%
14,O=C(NCc1ccc2c(c1)OCO2)c1ccc(NC(=O)C2CCCO2)cc1 (stereo not drawn),inconclusive: -46%
15,COc1ccc(S(=O)(=O)NCC(c2ccc(F)cc2)N2CCOCC2)cc1Br (stereo not drawn),inactive: 18.7%
16,COc1ccc(CN(C)CCc2ccccn2)cc1OC,active: -76%
17,CC1CCCN(CCOc2cccc(Oc3ccccc3)c2)C1 (stereo not drawn),active: -60.7%
18,Cc1cc(C)cc(NC(=S)Nc2ccc(Cl)c(Cl)c2)c1,inconclusive: -33.8%
19,CC1CCN(S(=O)(=O)N2CCCC(C(=O)NCc3ccccc3Cl)C2)CC1 (stereo not drawn),inconclusive: -30.1%
20,Cc1cc2ncn(S(=O)(=O)N3CCOCC3)c2cc1C,inactive: 17.8%
21,O=C(Nc1cccnc1)c1ccc2nc(-c3ccccc3)c(-c3ccccc3)nc2c1,inactive: 10.8%
22,COc1ccccc1CCc1nnc(CCC(=O)N(C)Cc2ccncc2C)o1,inconclusive: -32.7%

row,Structure (SMILES),"max response, negative = inhibition"
1,CC(C)c1ccc(OCC(O)CN2CCN(c3ccccc3)CC2)cc1 (stereo not drawn),inconclusive: -39.6%
2,Cc1ccc2oc(=O)c3cc(C(=O)NCCCN4CCc5ccccc5C4)sc3c2c1,active: -55.5%
3,CCSc1nc2ccc(OC)cc2cc1C#N,inconclusive: -31%
4,CC1(C)CC(=O)c2cc(OCC(=O)NCCCN3CCN(c4ccc(F)cc4)CC3)ccc2O1,active: -80.8%
5,CCn1c(N)cc(=O)[nH]c1=S,inconclusive: -43.1%
6,CCOc1ccc(OCC)c(NC(=O)CN2CCN(c3cccc(C)c3)CC2)c1,inconclusive: -36.8%
7,O=C1c2ccsc2SCCN1Cc1c(Cl)cccc1Cl,active: -60.9%
8,Cc1cc(Nc2ccccc2)c2c([N+](=O)[O-])ccc(C)c2n1,inconclusive: -31%
9,O=C(NCCN1CCN(c2ccccc2Cl)CC1)Nc1ccccc1,inconclusive: -43.1%
10,CC1CC(C)CN(CCOCCSc2ccccc2)C1 (stereo not drawn),active: -73.3%
11,Cc1ccc(N(CC(=O)Nc2ccccc2-c2ccccc2)S(=O)(=O)c2ccccc2)c(C)c1,inconclusive: -32.1%
12,Cc1ccc(C(=O)Nc2cc(C(C)C)c(O)c(C(C)C)c2)cc1,inactive: -14.1%
13,Cc1c(C(=O)N2CCCCC2)c(S(=O)(=O)Nc2cccc(Br)c2)c(C)n1C,inactive: 4.81%
14,O=C(OCc1nnc(-c2ccccc2)o1)c1cc(S(=O)(=O)N2CCOCC2)c(Cl)cc1Cl,active: -55.3%
15,CCCCN(C)c1c(C)nc2ccc(C(=O)N(C)CCN(C)C)cn12,active: -71.4%
16,CC(C)c1cc(Cn2c3ccccc3c(=O)n2C(C)Cn2cc(CCc3ccccc3)nn2)on1 (stereo not drawn),inactive: 2.94%
17,CSc1ccc(Cl)c(C(=O)OCC(=O)Nc2ccccc2OC(F)F)c1,inactive: -10.2%
18,Cc1ccc(NC(=O)CC(=O)c2ccc([N+](=O)[O-])cc2)cc1S(=O)(=O)Nc1cccc(Cl)c1,inconclusive: -30.8%
19,O=C(O)c1ccc(S(=O)(=O)c2ccc(Sc3ccc(C(=O)O)c(C(=O)O)c3)cc2)cc1,inactive: 6.31%
20,COc1ccccc1CNC(=O)c1ccc2nc(C)c(N(C)Cc3ccc(NC(C)=O)cc3)n2c1,inactive: -16.9%
21,O=C(Nc1ccccc1N1CCOCC1)c1ccc2ccccc2n1,inactive: -17.4%
22,Cc1ccc(S(=O)(=O)Nc2ccc3c(c2)nc(CCN2CCCCC2)n3C)cc1,active: -78.9%

row,Structure (SMILES),"max response, negative = inhibition"
1,O=C1C2CCCCN2C(=O)N1CCCCN1CCN(c2ccccc2Oc2ccccc2)CC1 (stereo not drawn),active: -104%
2,COCC(=O)N1CCC(Oc2ccc(C(=O)NC3CCOC(C)(C)C3)cc2)CC1 (stereo not drawn),inactive: -16.5%
3,Cc1ccc(C2(C)NC(=O)N(CC(=O)NNC(=O)c3cc(C)oc3C)C2=O)cc1 (stereo not drawn),inconclusive: -31.9%
4,C=CCOc1ccc(/C=C2\SC(=S)N(NS(=O)(=O)c3ccccc3)C2=O)cc1,inactive: 2.22%
5,O=C(COc1c(F)c(F)c(C(F)(F)F)c(F)c1F)Nc1ccc(N2CCOCC2)c(Cl)c1,inconclusive: -43%
6,COc1ccc(C)cc1NC(=O)C(NCC1CCCO1)c1ccccc1 (stereo not drawn),inconclusive: -47.2%
7,COc1ccc2[nH]c(=O)c(CN(Cc3ccco3)C(=O)c3ccccc3)cc2c1,active: -88.5%
8,CCn1c(-c2ccccc2)c[nH]c1=S,inactive: -8.08%
9,Cc1ccc2nc(-c3ccc(C#N)cc3)c(Cc3cccc(Cl)c3)n2c1,active: -52.6%
10,CCc1nc2ccc(C(=O)N3CCCCC3)cn2c1N(C)CCCc1ccccc1,inactive: 27.5%
11,Oc1ccc(-c2csc(NCc3ccco3)n2)cc1,inconclusive: -31.4%
12,N#CCc1ccc(NC(=O)c2cc(S(=O)(=O)N3CCOCC3)ccc2Cl)cc1,inconclusive: -46.6%
13,CC(C)[C@@H]1Cc2[nH]c(=O)[nH]c(=O)c2[C@H](c2ccc(F)cc2)O1,inconclusive: -37.1%
14,COc1ccc(N2CSC3=C(C#N)C(c4cc(OC)c(OC)cc4OC)CC(=O)N3C2)c(OC)c1 (stereo not drawn),inconclusive: -31%
15,N#CC1=C2SCN(c3ccccc3)CN2C(=O)CC1c1c(Cl)cccc1Cl (stereo not drawn),inconclusive: -42.6%
16,CCCc1c(C)[nH]c2ccc(NC(C)=O)cc2c1=O,inconclusive: -33.5%
17,COc1cc(NS(=O)(=O)c2ccc(NC(=S)NC(=O)c3ccc(F)c(F)c3)cc2)nc(OC)n1,inconclusive: -39.7%
18,O=C(c1cccc(N2C(=O)c3ccccc3C2=O)c1)N1CCCC(C(F)(F)F)C1 (stereo not drawn),inactive: 12.5%
19,CN(C(=O)c1ccc(NC(=O)Cc2ccc(NC(=O)C3CCN(C(=O)c4ccccc4)CC3)cc2)cc1)C1CC1,active: -98.6%
20,CNCc1ccccc1Sc1cc(O)ccc1O,active: -55%
21,O=C(C1CCN(S(=O)(=O)c2cccc3cccnc23)CC1)N1CCCCC1,inactive: -1.51%
22,Cc1ccc(-n2c(C)nc3c(cnn3-c3ccc(F)cc3)c2=O)cc1C,inconclusive: -31%

# Part of the list above, tab-delimited.
row	Structure (SMILES)	max response, negative = inhibition
12	O=C(NC1CCN(Cc2ccccc2)C1)c1cccc(S(=O)(=O)N2CCOCC2)c1 (stereo not drawn)	inconclusive: -45.6%
14	CCN(CC)S(=O)(=O)c1cccc(C(=O)NCC2CCCCC2)c1	inconclusive: -49.8%
12	CCN(CC)Cc1cc2ccccc2c2c1COC2	inconclusive: -49.9%
16	COc1ccc(CN(C)CCc2ccccn2)cc1OC	active: -76%
4	CC1(C)CC(=O)c2cc(OCC(=O)NCCCN3CCN(c4ccc(F)cc4)CC3)ccc2O1	active: -80.8%
21	O=C(C1CCN(S(=O)(=O)c2cccc3cccnc23)CC1)N1CCCCC1	inactive: -1.51%
